# Cleaved PARP after 72 h of treatment

Drug key:
pazopanib (2000 nM): Cc1ccc(Nc2nccc(N(C)c3ccc4c(C)n(C)nc4c3)n2)cc1S(N)(=O)=O
vismodegib (5000 nM): CS(=O)(=O)c1ccc(C(=O)Nc2ccc(Cl)c(-c3ccccn3)c2)c(Cl)c1
STA-4783 (30 nM): CN(NC(=O)CC(=O)NN(C)C(=S)c1ccccc1)C(=S)c1ccccc1
L-779450 (1000 nM): Oc1cc(-c2nc(-c3ccccc3)[nH]c2-c2ccncc2)ccc1Cl
cediranib (2000 nM): COc1cc2c(Oc3ccc4[nH]c(C)cc4c3F)ncnc2cc1OCCCN1CCCC1
OSI-906 (2000 nM): C[C@]1(O)C[C@@H](c2nc(-c3ccc4ccc(-c5ccccc5)nc4c3)c3c(N)nccn32)C1
fingolimod (10000 nM): CCCCCCCCc1ccc(CCC(N)(CO)CO)cc1
GW0742 (10000 nM): Cc1cc(SCc2sc(-c3ccc(C(F)(F)F)c(F)c3)nc2C)ccc1OCC(=O)O
KU-55933 (5000 nM): O=c1cc(-c2cccc3c2Sc2ccccc2S3)oc(N2CCOCC2)c1
palbociclib (200 nM): CC(=O)c1c(C)c2cnc(Nc3ccc(N4CCNCC4)cn3)nc2n(C2CCCC2)c1=O
LFM-A13 (10000 nM): C/C(O)=C(\C#N)C(=O)Nc1cc(Br)ccc1Br
everolimus (100 nM): CO[C@H]1C[C@@H]2CC[C@@H](C)[C@@](O)(O2)C(=O)C(=O)N2CCCC[C@H]2C(=O)O[C@H]([C@H](C)C[C@@H]2CC[C@@H](OCCO)[C@H](OC)C2)CC(=O)[C@H](C)/C=C(\C)[C@@H](O)[C@@H](OC)C(=O)[C@H](C)C[C@H](C)/C=C/C=C/C=C/1C
PD173074 (500 nM): CCN(CC)CCCCNc1ncc2cc(-c3cc(OC)cc(OC)c3)c(NC(=O)NC(C)(C)C)nc2n1
ABT-263 (2000 nM): CC1(C)CCC(c2ccc(Cl)cc2)=C(CN2CCN(c3ccc(C(=O)NS(=O)(=O)c4ccc(N[C@H](CCN5CCOCC5)CSc5ccccc5)c(S(=O)(=O)C(F)(F)F)c4)cc3)CC2)C1
GSK0660 (5000 nM): COC(=O)c1sccc1S(=O)(=O)Nc1ccc(Nc2ccccc2)cc1OC
GW9662 (10000 nM): O=C(Nc1ccccc1)c1cc([N+](=O)[O-])ccc1Cl
MK-1775 (100 nM): C=CCn1c(=O)c2cnc(Nc3ccc(N4CCN(C)CC4)cc3)nc2n1-c1cccc(C(C)(C)O)n1
erlotinib (4000 nM): C#Cc1cccc(Nc2ncnc3cc(OCCOC)c(OCCOC)cc23)c1
T0901317 (7000 nM): O=S(=O)(c1ccccc1)N(CC(F)(F)F)c1ccc(C(O)(C(F)(F)F)C(F)(F)F)cc1
tamatinib (2000 nM): COc1cc(Nc2ncc(F)c(Nc3ccc4c(n3)NC(=O)C(C)(C)O4)n2)cc(OC)c1OC

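Human melanoma cells were exposed to a pair of drugs for 72 h in 1,536-well plates and read by automated microscopy after fixing and staining. The read-out is the fraction of cleaved-PARP-positive nuclei, in % of that fraction in the DMSO control; 200 means twice the control level of this apoptosis marker. Every drug was used at one fixed concentration, the higher of two screened. These are primary screening values without error estimates. The marker varies much from line to line, for technical or biological reasons.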 An unselected part of the screen is shown. An entry leaves out what has no value listed here.

* erlotinib + tamatinib : G-361: 265; A101D: 434; LB2518-MEL: 63.0; UACC-62: 165
* pazopanib + T0901317 : G-361: 91.7; A101D: 373; LB2518-MEL: 117; UACC-62: 117
* palbociclib + MK-1775 : G-361: 199; A101D: 128; LB2518-MEL: 123; UACC-62: 183
* MK-1775 + GW9662 : G-361: 78.0; A101D: 204; LB2518-MEL: 115; UACC-62: 98.0
* palbociclib + OSI-906 : G-361: 66.5; A101D: 41.5; UACC-62: 169
* ABT-263 + KU-55933 : G-361: 107; A101D: 319; LB2518-MEL: 230; UACC-62: 219
* PD173074 + T0901317 : G-361: 89.4; A101D: 60.7; LB2518-MEL: 32.9; UACC-62: 193
* vismodegib + erlotinib : G-361: 133; A101D: 110; LB2518-MEL: 217; UACC-62: 138
* cediranib + LFM-A13 : G-361: 68.9; A101D: 28.3; LB2518-MEL: 87.8; UACC-62: 119
* palbociclib + T0901317 : G-361: 46.7; A101D: 112; UACC-62: 240
* vismodegib + KU-55933 : G-361: 27.2; A101D: 116; LB2518-MEL: 140; UACC-62: 131
* fingolimod + palbociclib : G-361: 6370; A101D: 783; LB2518-MEL: 64900; UACC-62: 462
* ABT-263 + erlotinib : G-361: 147; A101D: 337; LB2518-MEL: 274; UACC-62: 284
* GSK0660 + STA-4783 : G-361: 159; A101D: 265; LB2518-MEL: 7370; UACC-62: 67.6
* GW0742 + cediranib : G-361: 96.0; A101D: 35.5; LB2518-MEL: 70.9; UACC-62: 113
* GW0742 + tamatinib : G-361: 66.2; A101D: 570; LB2518-MEL: 106; UACC-62: 50.1
* OSI-906 + everolimus : G-361: 454; A101D: 94.2; LB2518-MEL: 599; UACC-62: 319
* STA-4783 + OSI-906 : G-361: 930; A101D: 82.0; LB2518-MEL: 1260; UACC-62: 128
* L-779450 + PD173074 : G-361: 180; A101D: 161; UACC-62: 586
* GW0742 + LFM-A13 : G-361: 99.4; A101D: 102; LB2518-MEL: 71.1; UACC-62: 56.5
* erlotinib + L-779450 : G-361: 228; A101D: 174; LB2518-MEL: 228; UACC-62: 265
* LFM-A13 + ABT-263 : G-361: 241; A101D: 582; LB2518-MEL: 263; UACC-62: 217
* GW0742 + pazopanib : G-361: 116; A101D: 113; LB2518-MEL: 73.7; UACC-62: 85.8
* KU-55933 + GSK0660 : G-361: 69.6; A101D: 109; LB2518-MEL: 98.0; UACC-62: 158
* L-779450 + fingolimod : G-361: 15000; A101D: 2070; LB2518-MEL: 27200; UACC-62: 430

Repeated from the top, 2 entries:

* erlotinib + tamatinib | G-361: 265; A101D: 434; LB2518-MEL: 63.0; UACC-62: 165
* pazopanib + T0901317 | G-361: 91.7; A101D: 373; LB2518-MEL: 117; UACC-62: 117

From a melanoma drug combination screen (doi:10.1371/journal.pone.0140310); values rounded.